Data taken from US20110293745A1, “AURORA KINASE INHIBITORS” (SUNESIS PHARMACEUTICALS, INC., priority 2008, published 2011).
At least one compound was matched to its structure with a doubt left.

Assay: Humidity-controlled form conversion
Assay type: physicochemical
Description: The samples were monitored each week for a total duration of five weeks. Each sample was tested by XRPD, DSC, TGA, and Karl Fisher analysis.

Q: For `CS(=O)(=O)O.O=C(Nc1cccc(Cl)c1)Nc1ncc(CCNc2ncnc3ccsc23)s1` [A], which “TGA Loss” value (95% RH, week 2) is on record?
A: 1.7, 0.2 Wt %

Q: What about the “TGA Loss” value (95% RH, week 3) of the same molecule?
A: 2.1, 0.1 Wt %

Q: And the “TGA Loss” value (95% RH, week 5)?
A: 2.3, 0.2 Wt %

Q: Which results are given for `CS(=O)(=O)O.O=C(Nc1cccc(Cl)c1)Nc1ncc(CCNc2ncnc3ccsc23)s1` [B]?
A: TGA Loss (0% RH, week 1): 2.4, 0.2 Wt %; TGA Loss (0% RH, week 2): 3.0, 0.2 Wt %; TGA Loss (0% RH, week 3): 2.5, 0.4 Wt %; TGA Loss (0% RH, week 4): 2.8, 0.2 Wt %; TGA Loss (0% RH, week 5): 3.0, 0.3 Wt %; TGA Loss (20% RH, week 1): 2.7, 0.2 Wt %; TGA Loss (20% RH, week 2): 2.7, 0.3 Wt %; TGA Loss (20% RH, week 3): 2.9, 0.3 Wt %; TGA Loss (20% RH, week 4): 2.7, 0.3 Wt %; TGA Loss (20% RH, week 5): 2.4, 0.3 Wt %; TGA Loss (52% RH, week 1): 2.7, 0.2 Wt %; TGA Loss (52% RH, week 2): 2.7, 0.2 Wt %; TGA Loss (52% RH, week 3): 2.9, 0.3 Wt %; TGA Loss (52% RH, week 4): 2.5, 0.3 Wt %; TGA Loss (52% RH, week 5): 2.2, 0.3 Wt %; TGA Loss (75% RH, week 1): 2.3, 0.2 Wt %; TGA Loss (75% RH, week 2): 2.4, 0.3 Wt %; TGA Loss (75% RH, week 3): 2.8, 0.3 Wt %; TGA Loss (75% RH, week 4): 2.6, 0.3 Wt %; TGA Loss (95% RH, week 1): 2.4, 0.2 Wt %; TGA Loss (95% RH, week 2): 2.8, 0.3 Wt %; TGA Loss (95% RH, week 4): 2.3, 0.3 Wt %; TGA Loss (95% RH, week 5): 2.6, 0.3 Wt %; TGA Loss (starting point, week 0): 2.5, 0.2 Wt %
